For 42 sequences, binding signal results are on record in article PMC7819943, “Rice protein-binding microarrays: a tool to detect cis-acting elements near promoter regions in rice”.

The list shows a part of the results.

The target in the test is T1, OsSMF1 (Oryza sativa, UniProt Q6ZLB0 1-436).
T1 sequence: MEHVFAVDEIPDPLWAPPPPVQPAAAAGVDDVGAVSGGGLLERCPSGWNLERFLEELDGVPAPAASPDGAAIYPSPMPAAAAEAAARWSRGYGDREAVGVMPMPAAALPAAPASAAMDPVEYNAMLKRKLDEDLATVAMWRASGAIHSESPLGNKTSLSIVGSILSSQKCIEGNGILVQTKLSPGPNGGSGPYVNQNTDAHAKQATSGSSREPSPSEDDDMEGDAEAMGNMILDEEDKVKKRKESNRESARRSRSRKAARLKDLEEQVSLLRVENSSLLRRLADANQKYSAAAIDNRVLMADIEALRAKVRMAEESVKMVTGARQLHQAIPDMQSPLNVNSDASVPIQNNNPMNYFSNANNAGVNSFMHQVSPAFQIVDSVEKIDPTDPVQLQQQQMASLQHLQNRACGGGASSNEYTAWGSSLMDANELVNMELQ
The test is described as follows: protein-binding microarray (RPBM); PBS, 2% BSA, 51.3 ng/ul salmon testes DNA, 50 uM zinc acetate, 200 nM TF, 25 C, 1 h; high values mean tight binding. The following applies: protein: recombinant; tags: N-terminal polyhistidine and DsRed monomer fusion (pET32a); chain copies: 2; label: CyDye5-dUTP incorporated in the synthesized complementary strand; 3' TTTTT single-stranded linker to array surface; dsDNA, one strand shown. The essentials: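 The binding signal is fluorescence intensity per feature, in arbitrary units, read on an Axon 4000B scanner. Polyhistidine- and DsRed-tagged transcription factors (N-terminal fusions) from E. coli BL21-CodonPlus were purified on Ni–NTA and applied at 200 nM for 1 h at 25 °C to a double-stranded, BSA-blocked custom Agilent array in buffer with 50 µM zinc acetate.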
With “CAGGGTATGAATCACGTGGAGAACAATTCTGATGTTCGCCCGGAGTCACCTAGTGCAG”, the binding signal was 3680 fluorescence intensity (a.u.).
For “TCGCCCGCCCAAAGCGGCAAAGCGGTGACGCAAACTCGTTCGGAGTCACCTAGTGCAG” the value was 3580 fluorescence intensity (a.u.); for “GGAAGGACGCCCAGCCGCCACGTGCACAGCTCATAGCCACCGGAGTCACCTAGTGCAG”, 8480 fluorescence intensity (a.u.).
In the case of “CACGACCATGGTGACGATGGCATCACACTCCGCCATTGCACGGAGTCACCTAGTGCAG” it was 5220 fluorescence intensity (a.u.).
In the case of “CTCATGAGCTCACAAATATTATATGACGCAACCAAAGCTACGGAGTCACCTAGTGCAG” it was 3370 fluorescence intensity (a.u.); in that of “ACGCCGTGCGCGCTGACGTCACTCTCGAGTTGGCCAAAAGCGGAGTCACCTAGTGCAG”, 17000 fluorescence intensity (a.u.).
For “TTGAAATGTTTAGTTCTGAGAAATGAGCTGTCATATGCCACGGAGTCACCTAGTGCAG”, the binding signal was 7440 fluorescence intensity (a.u.).
For “TAAACCCTAAGCTCAAAGCCATCTTTCCTCAAAAGGCAAACGGAGTCACCTAGTGCAG” the value was 16300 fluorescence intensity (a.u.); for “TGGTGGTGGTGGTGGCTGTAGTGTGGAGGTGGTGGGGAGTCGGAGTCACCTAGTGCAG”, 4660 fluorescence intensity (a.u.); for “GTGACACCGCCAGGTGTGCCCCACCTGTCACCCTCCAGCGCGGAGTCACCTAGTGCAG”, 4000 fluorescence intensity (a.u.).
In the case of “CCAATCCGAGCGGTCGTCGGCGCCGTTCCACACCATGGCTCGGAGTCACCTAGTGCAG” it was 6430 fluorescence intensity (a.u.).
For “CGCCGCGCAACACCACCGACGACGACGTCAACCCGCACCCCGGAGTCACCTAGTGCAG” the value was 4380 fluorescence intensity (a.u.).
Take “CCGACCCTGCCACCGTCATCTGACGACGTTTTCCCAGGGCCGGAGTCACCTAGTGCAG”: the binding signal was 8470 fluorescence intensity (a.u.).
In the case of “TACATTTTGAAGGTGGGAGGGTAGGATAGTAATTTCGCATCGGAGTCACCTAGTGCAG” it was 4070 fluorescence intensity (a.u.); in that of “GACGACTGCTGGTACACGGACATGAGGCTGCAGCCGACGACGGAGTCACCTAGTGCAG”, 3480 fluorescence intensity (a.u.); in that of “ATTATAGTTTTGTGATGACTTGTAAATCCGTAGATTTGTGCGGAGTCACCTAGTGCAG”, 5000 fluorescence intensity (a.u.).
In the case of “TCGCGAGTGACGCAGCTCCCATCAGCAGCAACGAGCTCTGCGGAGTCACCTAGTGCAG” it was 5180 fluorescence intensity (a.u.); in that of “CACTAGTAAAGGGAGTCACTCCCGAACTTATTCCAATCCGCGGAGTCACCTAGTGCAG”, 4310 fluorescence intensity (a.u.).
For the sequence “GATTTGCGGATAGGCGCCACGCGCGCGCTGCGACGTTACACGGAGTCACCTAGTGCAG”, the binding signal was 4020 fluorescence intensity (a.u.).
For “TCCCCTTCTTCACCGATGCGGCGATGCGCGCGCCTTCTTCCGGAGTCACCTAGTGCAG” the value was 27500 fluorescence intensity (a.u.).
Consider “AGAGTTACTAACTACAAAGTTGTAGATCTCCTTGAGCTCTCGGAGTCACCTAGTGCAG”, for which the binding signal was 7900 fluorescence intensity (a.u.).
“TCTCAACTTCTCCACGTTTTCTTGATGTATGCGGAAGCCCCGGAGTCACCTAGTGCAG”: the binding signal is 3940 fluorescence intensity (a.u.).
In the case of “CTCTTGTGCAAAACTGCCAGATCAGATTCAGATGCATTCTCGGAGTCACCTAGTGCAG” it was 3380 fluorescence intensity (a.u.); in that of “CATTGGTTGATGTGTCGTCCAAAAGAGATGTTATAGTTTGCGGAGTCACCTAGTGCAG”, 4230 fluorescence intensity (a.u.).
For “TTCTATAATCCATGATTACTCAGCAAAATTTGACCAAATTCGGAGTCACCTAGTGCAG” the value was 5340 fluorescence intensity (a.u.).
In the case of “TACTTAAGTGCCAAGTGTCAAAGTGTGTGTGGTTTTCTGCCGGAGTCACCTAGTGCAG” it was 4130 fluorescence intensity (a.u.); in that of “CCCTCCAGAGGTTGCACTGCCACGTGGATTGCCCTATCATCGGAGTCACCTAGTGCAG”, 13300 fluorescence intensity (a.u.).
For the sequence “AATGCTGCAATTTCTCGTTGACTAGACTTCACATGCAGCTCGGAGTCACCTAGTGCAG”, the binding signal was 5400 fluorescence intensity (a.u.).
Consider “CCTAGATTGCGCCGCACCACGCCACCACGTACGCACGCGTCGGAGTCACCTAGTGCAG”, for which the binding signal was 12700 fluorescence intensity (a.u.).
For “ACGAGCAAACTTCCTCGACGCTGCCACGTCACTGGCAACGCGGAGTCACCTAGTGCAG” the value was 27200 fluorescence intensity (a.u.); for “GTAAACTCATCTGAAAGGAAGAAAATTTACGATTTTGCTACGGAGTCACCTAGTGCAG”, 31900 fluorescence intensity (a.u.).
In the case of “TGGCGGATCCGGCGGCGGGGAGCCGACGGAGACAGGGAAGCGGAGTCACCTAGTGCAG” it was 33900 fluorescence intensity (a.u.).
For “GATTGTTGCTTAAGTCAGTGACACAGACAAACCCGAAGCACGGAGTCACCTAGTGCAG” the value was 4120 fluorescence intensity (a.u.); for “GTCATCAATCCGCGCCTCCTCCCGTGATCTCAATCCCAACCGGAGTCACCTAGTGCAG”, 31600 fluorescence intensity (a.u.); for “ATATACTCTACTTTATGAGTCAGGCTGTGTTTAGTTCAGTCGGAGTCACCTAGTGCAG”, 3960 fluorescence intensity (a.u.).
Turning to “TGGCATTATATTTAAGCAGCCTTTGCTGACGAGTACTCATCGGAGTCACCTAGTGCAG”, the binding signal was 5300 fluorescence intensity (a.u.).
For “TCAACCGATCACGGGAGTGACACACCTCCACTATAGGTGTCGGAGTCACCTAGTGCAG” the value was 5020 fluorescence intensity (a.u.); for “TATGGTTTGATTAGATTTAAGAACTTGTTTTGGTCTCTATCGGAGTCACCTAGTGCAG”, 35300 fluorescence intensity (a.u.); for “GTATTTACAACATCATTGGCGACTGAATTGCACGATCTTTCGGAGTCACCTAGTGCAG”, 3760 fluorescence intensity (a.u.).
For “GGTCTTGCCTCCTACAAGTCCTCCTCCACGTTCAACTCAGCGGAGTCACCTAGTGCAG” the value was 3460 fluorescence intensity (a.u.); for “ATTTCCGGTGGGACCGATGTGTCAGTCGCCACGTAGGACACGGAGTCACCTAGTGCAG”, 16400 fluorescence intensity (a.u.); for “ACAACGTCGATACCTGGTGCTGCTGACGCCGTCGCCGACCCGGAGTCACCTAGTGCAG”, 6000 fluorescence intensity (a.u.).
